Source: patent US20050265999A1, “Modulation of 5-HT2 receptors as a treatment for cardiovascular diseases” (Myogen, Inc., priority 2003, published 2005)
At least one structure is not confirmed: it was looked up by name or label, or the drawing left a doubt.

Key:
[1] = tested on: 28 kDa calcineurin-regulated MCIP1 protein; experiment: Western blot of MCIP1 protein in NRVM; type: cell-based, rat; conditions: NRVM stimulated with 18264 (1 μM), 48 h; CsA 500 nM; ketanserin, cyproheptadine 0.3 and 3 μM; 20068 1 and 3 μM
Method: NRVM culture. For preparations of neonatal rat ventricular myocytes (NRVMs), hearts were removed from 10-20 newborn (1-2 days old) Sprague-Dawley rats. Isolated ventricles were pooled, minced and dispersed by three 20-min incubations at 37° C. in Ads buffer (116 mM NaCl, 20 mM HEPES, 10 mM NaH2PO4, 5.5 mM glucose, 5 mM KCl, 0.8 mM MgSO4, pH 7.4) containing collagenase Type II (65 units/ml, Worthington) and pancreatin (0.6 mg/ml, GibcoBRL). Dispersed cells were applied to a discontinuous gradient of 40.5% and 58.5% (v/v) Percoll (Amersham Biosciences), centrifuged, and myocytes collected from the interface layer. Myocyte preparations were pre-plated in Dulbecco's modified Eagle's medium (DMEM, Cellgro), supplemented with 10% (v/v) fetal bovine serum (FBS, HyClone), 4 mM L-glutamine and 1% penicillin/streptomycin for 1 hour at 37° C. to reduce fibroblast contamination, then plated at a density of 2.5×10^5 cells per well on 6-well tissue culture plates (or 10,000 cells/well on 96-well tissue culture plates) coated with a 0.2% (w/v) gelatin solution. […]
Western Blots. […] Protein concentrations were determined by the bicinchoninic acid method (BCA Protein Assay, Pierce) with bovine serum albumin as a standard. Equivalent quantities of protein samples ([…]) were denatured in Laemmli buffer and resolved on Tris-glycine SDS-PAGE gels (4-20% acrylamide gradient, Invitrogen). […]

[2] = tested on: neonatal rat ventricular myocytes (NRVM); experiment: ANF secretion by competitive ELISA in NRVM; type: cell-based; conditions: NRVM stimulated with 18264 (1 μM), 48 h; antagonist up to 3 μM
Method: NRVM culture. For preparations of neonatal rat ventricular myocytes (NRVMs), hearts were removed from 10-20 newborn (1-2 days old) Sprague-Dawley rats. Isolated ventricles were pooled, minced and dispersed by three 20-min incubations at 37° C. in Ads buffer (116 mM NaCl, 20 mM HEPES, 10 mM NaH2PO4, 5.5 mM glucose, 5 mM KCl, 0.8 mM MgSO4, pH 7.4) containing collagenase Type II (65 units/ml, Worthington) and pancreatin (0.6 mg/ml, GibcoBRL). Dispersed cells were applied to a discontinuous gradient of 40.5% and 58.5% (v/v) Percoll (Amersham Biosciences), centrifuged, and myocytes collected from the interface layer. […]
Hypertrophy and toxicity assays. Primary hypertrophy endpoints for NRVM included quantitation of: ANF secretion, total cellular protein and cell volume. ANF in media supernatants was quantitated by competitive ELISA using a monoclonal anti-ANF antibody (Biodesign) and a biotinylated ANF peptide (Phoenix Peptide). Total cellular protein was quantitated by standard Coomassie dye-binding assay; cells were lysed in protein assay reagent (BioRad) and absorbance at A595 was measured after 1 hour. […] After recovery by centrifugation, cell pellets were washed in PBS, resuspended in 10 ml IsoFlow electrolyte solution (Beckman-Coulter) and analyzed with a Z2 Coulter Particle Counter and Size Analyzer (Beckman-Coulter). […]

`CN1CCC(=C2c3ccccc3C=Cc3ccccc32)CC1` [cyproheptadine, reference compound] was tested. Which “attenuation of 18264-dependent induction of MCIP1 protein expression” value [1] did it give?
Its value is “attenuated”.

What about the “block of 18264-dependent ANF secretion” value [2] of the same compound?
The value was “able to block”.
